This is one part of the list. The main result of the screen is listed elsewhere. These columns were measured beside it and carry no call. Most of these compounds were active or inconclusive in the main read-out, so they are no random draw. Potencies come from curve fits of mixed quality, noted in brackets.
Experiment: qHTS Assay for Lipid Storage Modulators in Drosophila S3 Cells;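 for cell number change: cells counted by Cell Tracker Red CMTPX staining in the red channel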
Conditions: BODIPY lipid droplet fluorescence, 18-24 h; for cell number change: measured here: cell count max response, cells fed with added oleic acid
Outline: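 Drosophila S3 cells loaded with oleic acid (400 uM, as added) and compounds at several concentrations; lipid droplets imaged by 488-nm laser-scanning cytometry, 500–530 nm intensity and object ratio to cell channel. Percent activity normalized to 20 uM Triacsin C.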

[1] = measured here: cell number channel AC50, cells fed with added oleic acid
[2] = measured here: lipid fluorescence (Fed channel) AC50, cells fed with added oleic acid

| Structure (SMILES) | cell number change | AC50 [1] | AC50 [2] |
| --- | --- | --- | --- |
| CCc1c(C)nc2ncnn2c1NCCc1ccc(Cl)cc1 | -39.6% | 29.1 µM [falling, single point] | 23.1 µM [falling, partial curve] |
| COC(=O)/C=c1/sc2n(c1=O)CCN=2 | 1.21% | – | – |
| COc1ccc(N(CC(=O)N2CCN(C)CC2)S(=O)(=O)c2ccccc2)cc1 | -14.5% | – | – |
| COc1ccc(S(=O)(=O)NCC2CCCO2)c(Cl)c1Cl (stereo not drawn) | 6.61% | – | 1.16 µM [rising, full curve, poor fit] |
| CN(c1ccc(F)cc1)S(=O)(=O)c1ccc(Cl)c(C(=O)NCC(c2ccco2)N2CCCCC2)c1 (stereo not drawn) | – | 6.51 µM [rising, single point] | 29.1 µM [falling, single point] |
| CN(Cc1cn(C)nc1-c1ccccc1F)CC1CCN(Cc2ccccc2)CC1 | 29% | – | 0.00411 µM [falling, full curve, poor fit] |
| CN(CC(=O)NCCc1ccc(S(N)(=O)=O)cc1)c1ccccc1 | 9.23% | 0.00461 µM [falling, full curve, poor fit] | – |
| O=C(CNC(=O)C1CCCCC1)NCc1ccco1 | 4.05% | – | 6.51 µM [falling, single point] |
| CCOc1ccc(/C=N/OC(C)C(=O)NCc2ccc3c(c2)OCO3)cc1 (stereo not drawn) | 42% | 5.17 µM [rising, full curve] | 1.03 µM [rising, full curve] |
| O=C(CSc1nnc(-c2ccccc2O)o1)NC1CCCCC1 | 25% | – | 1.16 µM [rising, single point] |
| COC(=O)C1=C(CN2CCc3ccccc32)NC(=O)NC1c1cc(C)ccc1C (stereo not drawn) | -8.5% | – | 6.51 µM [falling, single point] |
| CCCNC(=O)c1ccc(N2CCC3(CC2)CC(c2cccc(Br)c2)=NO3)c(NC(=O)c2ccco2)c1 | -15.8% | – | 29.1 µM [falling, single point] |
| CC(C)(O)/C=C1/Oc2ccccc2C1N1CCCCC1 (stereo not drawn) | -35.6% | 1.16 µM [falling, partial curve] | 1.16 µM [falling, full curve] |
| NC(=O)c1c(NC(=O)c2c(F)cccc2F)sc2c1CCN(Cc1ccccc1)C2 | 13% | – | – |
| CCOC(=O)c1ccc(NC(=O)COc2ccccc2CNCCc2ccccc2)cc1 | -77.7% | 22.4 µM [falling, single point] | – |
| Nn1c(SCC(=O)Nc2ccc3c(c2)OCO3)nnc1-c1ccccc1 | -21.5% | – | 0.517 µM [rising, full curve, poor fit] |
| CN1CCC(=O)N([C@H](CO)c2ccccc2)CC1 | 2.1% | – | – |

Quoted at random: 2 entries already listed.

| Structure (SMILES) | cell number change | AC50 [1] | AC50 [2] |
| --- | --- | --- | --- |
| O=C(CNC(=O)C1CCCCC1)NCc1ccco1 | 4.05% | – | 6.51 µM [falling, single point] |
| COC(=O)/C=c1/sc2n(c1=O)CCN=2 | 1.21% | – | – |

From PubChem BioAssay AID2685 (National Center for Advancing Translational Sciences (NCATS), 2010)
